No constants are given. Whether binding was seen depends on the method and setting. Binding seen in cells or lysates may run through a third protein. Some results given as binding are weak or reduced against the parent protein; the word gives no strength. Sequences can lack the tags named with a protein.
T1: DEK-His-GFP (LAP-tag DEK fusion) (human) (UniProt P35659)
T1 sequence: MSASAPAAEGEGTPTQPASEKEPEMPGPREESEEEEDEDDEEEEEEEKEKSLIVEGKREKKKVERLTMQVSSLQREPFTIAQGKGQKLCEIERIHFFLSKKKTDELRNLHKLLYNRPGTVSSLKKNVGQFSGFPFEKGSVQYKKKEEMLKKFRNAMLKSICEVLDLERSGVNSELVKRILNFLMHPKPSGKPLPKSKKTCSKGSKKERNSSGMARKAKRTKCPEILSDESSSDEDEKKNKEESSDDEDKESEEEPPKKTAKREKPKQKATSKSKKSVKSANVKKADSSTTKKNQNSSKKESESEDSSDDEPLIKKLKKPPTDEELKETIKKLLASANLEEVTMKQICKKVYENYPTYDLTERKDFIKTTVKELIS

Chains of the proteins cited; added tags and fusions are not shown.
UniProt Q09028: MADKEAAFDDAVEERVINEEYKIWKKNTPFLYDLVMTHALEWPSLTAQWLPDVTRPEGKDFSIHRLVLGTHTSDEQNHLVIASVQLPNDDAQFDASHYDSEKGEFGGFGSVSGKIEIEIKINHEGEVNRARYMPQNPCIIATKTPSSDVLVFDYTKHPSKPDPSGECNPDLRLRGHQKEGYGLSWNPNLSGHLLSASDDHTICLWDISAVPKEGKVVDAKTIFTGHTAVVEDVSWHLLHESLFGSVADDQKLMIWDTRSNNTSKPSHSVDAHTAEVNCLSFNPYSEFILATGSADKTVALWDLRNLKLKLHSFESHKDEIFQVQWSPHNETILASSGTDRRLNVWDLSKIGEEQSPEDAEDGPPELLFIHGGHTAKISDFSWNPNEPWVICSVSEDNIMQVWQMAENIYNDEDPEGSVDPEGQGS
UniProt O75530: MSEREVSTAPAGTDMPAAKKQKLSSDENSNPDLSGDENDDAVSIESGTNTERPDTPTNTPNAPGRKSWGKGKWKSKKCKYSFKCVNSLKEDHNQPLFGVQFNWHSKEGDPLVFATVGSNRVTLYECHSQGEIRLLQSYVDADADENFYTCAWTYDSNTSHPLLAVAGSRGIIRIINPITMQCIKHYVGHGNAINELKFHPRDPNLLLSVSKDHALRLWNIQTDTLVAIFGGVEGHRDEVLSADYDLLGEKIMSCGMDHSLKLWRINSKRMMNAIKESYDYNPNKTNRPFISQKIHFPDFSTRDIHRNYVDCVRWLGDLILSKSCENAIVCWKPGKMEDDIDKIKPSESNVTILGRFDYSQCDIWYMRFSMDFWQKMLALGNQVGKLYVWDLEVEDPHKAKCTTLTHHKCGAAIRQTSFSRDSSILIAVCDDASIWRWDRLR
UniProt Q15022: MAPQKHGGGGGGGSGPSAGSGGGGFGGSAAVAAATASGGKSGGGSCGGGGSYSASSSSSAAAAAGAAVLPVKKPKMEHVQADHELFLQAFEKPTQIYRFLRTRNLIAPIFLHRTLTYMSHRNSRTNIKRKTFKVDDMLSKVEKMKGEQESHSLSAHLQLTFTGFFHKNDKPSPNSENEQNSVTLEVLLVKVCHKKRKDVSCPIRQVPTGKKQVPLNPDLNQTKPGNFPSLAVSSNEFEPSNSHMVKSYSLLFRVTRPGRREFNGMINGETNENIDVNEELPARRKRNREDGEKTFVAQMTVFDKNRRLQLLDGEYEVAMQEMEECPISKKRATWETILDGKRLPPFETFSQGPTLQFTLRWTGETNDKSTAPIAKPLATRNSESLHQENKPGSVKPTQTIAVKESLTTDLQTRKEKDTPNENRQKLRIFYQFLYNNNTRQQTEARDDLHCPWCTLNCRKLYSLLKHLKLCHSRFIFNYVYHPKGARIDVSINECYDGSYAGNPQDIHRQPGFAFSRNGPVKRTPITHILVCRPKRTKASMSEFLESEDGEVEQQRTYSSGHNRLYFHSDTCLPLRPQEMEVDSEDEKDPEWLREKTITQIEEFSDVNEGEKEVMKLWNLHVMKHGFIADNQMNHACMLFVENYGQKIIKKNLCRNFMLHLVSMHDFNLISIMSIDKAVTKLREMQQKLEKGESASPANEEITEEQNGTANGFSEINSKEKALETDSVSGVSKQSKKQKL

T2: DEK (full-length, untagged, doxycycline-induced from pTRIPZ) (human) (UniProt P35659)
T2 sequence: T1 sequence

T3: DEK-His-GFP (LAP-tag DEK fusion) (human), P35659
T3 chain: T1 sequence

B1: endogenous DEK, P35659 1-375 (protein)
chain: T1 sequence

Experiments:
[1] = biological target: T1, DEK-His-GFP (LAP-tag DEK fusion) (human); assay: co-IP; GFP-trap (LAP-tag immunoprecipitation): nuclear extract of tetracycline-induced HEK293 cells on GFP-trap beads, 1 h at 4°C; wash buffer 10 mM Tris-HCl pH 7.5, 150 mM NaCl, 0.5 mM EDTA; eluted with 0.2 M glycine pH 2.5; immunoblot
[2] = biological target: T2, DEK (full-length, untagged, doxycycline-induced from pTRIPZ) (human); assay: co-IP; whole cell lysates of MCF10A pTRIPZ-DEK cells induced with doxycycline for 48 h; IP lysis buffer 25 mM NaCl, 25 mM Tris-HCl, 1 mM EDTA, 1% Nonidet P-40, 5% glycerol; immunoprecipitation with DEK or SUZ12 antibody overnight at 4°C, protein A/G agarose beads; immunoblot
[3] = biological target: T3, DEK-His-GFP (LAP-tag DEK fusion) …; assay: co-IP; GFP-trap (LAP-tag immunoprecipitation): nuclear extract of tetracycline-induced HEK293 cells on GFP-trap beads, 1 h at 4°C; wash buffer 10 mM Tris-HCl pH 7.5, 150 mM NaCl, 0.5 mM EDTA; eluted with 0.2 M glycine pH 2.5; immunoblot; conditions: remark: other sources report otherwise

| Molecule | binding [1] | other results |
| --- | --- | --- |
| RBBP4 (from UniProt Q09028 1-425) | binds | – |
| EED (from UniProt O75530 1-441) | binds | – |
| SUZ12 (from UniProt Q15022 1-739) | – | binding [2]: binds |
| B1 | – | binding [3]: binds |
